In ChEMBL document CHEMBL6074686 (Eur J Med Chem, 2025) one finds Activity data, which are given here for one molecule.

This series in a line: Toxicity in female BALB/c nude mouse xenografted with human SK-OV-3 cells assessed as body weight loss at 10 mg/kg, sc administered via tail vein once every 2 to 3 days. Conditions: in vivo, time 2-3 day. Format: organism-based. Background: In xenograft studies the graft and the host belong to different species.

Take `CC(=O)O[C@H]1C(=O)[C@@]2(C)[C@H]([C@H](OC(=O)c3ccccc3)[C@]3(O)C[C@H](OC(=O)[C@H](O)[C@@H](NC(=O)c4ccccc4)c4ccccc4)C(C)=C1C3(C)C)[C@]1(OC(C)=O)CO[C@@H]1C[C@@H]2O` [PACLITAXEL]: the Activity entry was “Toxic”.
